Source: patent US10550304B2, “Quaternary ammonium compounds and gas hydrate inhibitor compositions” (M-I DRILLING FLUIDS UK LIMITED, priority 2013, dated 2020)

How the values were obtained:
[1] = Anti-agglomeration (AA) rocking cell test, standard conditions; design: key: A ranking of 5 is the best possible score and on occasion may mean there are no visible hydrates in the system at all; a ranking of 2 represents a marginal hydrate control scenario at best; A ranking of 1 is a failure; details: 80 Bar gas pressure, additive free condensate, 2 volume % compound, 3 wt. % NaCl brine; scale 1 to 5
[2] = Anti-agglomeration (AA) rocking cell test, varying conditions (condition sets 1-8); details: 8 condition sets of table 7

CCCCCCCCCCCCCC[P+](CCCC)(CCCC)CCCC.[Cl-] [TTPC, tributyl tetradecylphosphonium chloride]
Ranking Stage 1 (Cooldown) [1]: 5 | Ranking Stage 2 (Flowing and shut-in) [1]: 5 | Ranking Stage 3 (Immediate restart) [1]: 5 | Ranking Stage 4 (Restart to end test) [1]: 5 | Number of tests (out of 8) at ranking 3 or above, Condensate ([2]; condensate): 5 | Number of tests (out of 8) at ranking 3 or above, Crude oil ([2]; crude oil): 4
